Test results: publication PMC13120037

Target: human serum albumin (HSA) (Homo sapiens) (UniProt P02768)
Experiment: library-bead release assay (streptavidin magnetic beads with capture strand, Nanodrop of supernatant)
Details: HSA as negative control target, stated no cross reaction; 1x binding buffer (composition not given), room temperature, 60 min; library beads pre-incubated in 1x TES at 25 C; single-stranded DNA

TTTTCGCTGGCTAGTCAGTTTTCTCGTCGTGTGAT [Seq78-4]
binding result: no binding

No signal at the amounts used counts as a negative.
